# PubChem BioAssay AID540276 (National Center for Advancing Translational Sciences (NCATS), 2011)
# “And” between values parts separate entries of the source, which are not always exact repeats. Equal entries are not always repeated. The whole screen tested about 300,000 compounds, of which about 5,400 (1.8%) were called active. The inconclusive results got no clear call from the source; some entries with a clear call stand among them for comparison. Calls follow the shape of the full dose curve; tested in HEK293 cells. A potency beside an inconclusive call is a rough fit, not a confirmed value.
# Assay: qHTS for inhibitors of binding or entry into cells for Marburg Virus
# Settings: Marburg virus pseudotyped entry inhibition, cell reporter; series mostly up to 37.8 µM
# Potency is read from the fitted curve at half-maximal effect.
row,SMILES,Potency
1,N#Cc1ccc(COC(=O)CSc2nnc(C3CCCCC3)n2N)cc1,inactive
2,CCOc1cccc2cc(C(N)=O)c(=NCc3ccccc3)oc12,inactive
3,CN(C)CCn1c(N)nc2ccccc21,"inconclusive: 0.562 µM [inhibitor, full curve, poor fit]"
4,Cc1ccc(-n2ncc3c2CCCC3NC(=O)CCCN2CCCC2=O)cc1C (stereo not drawn),inactive
5,CSCCC(NC(=O)c1ccc(Cl)cc1)C(=O)OCC(C)=O (stereo not drawn),inactive
6,CC12CC(O)C3C(CCC4=CC(=O)CCC43C)C1CCC2=O (stereo not drawn),inactive
7,CSc1nc2c(cc1C#N)C(=O)CC(C)(C)C2,"inconclusive: 6.31 µM [inhibitor, single point]"
8,Cc1nc2sccn2c(=O)c1S(=O)(=O)Nc1ccc(N2CCOCC2)c(Cl)c1,inactive
9,Cc1ccc(NC(=O)Cn2ncn3c(cc4ccccc43)c2=O)cc1F,"inactive and inconclusive: 11.2 µM [inhibitor, single point]"
10,COc1ccccc1/C=C/C=N/NC(=O)CCn1cnc2ccccc21,"inconclusive: 3.98 µM [inhibitor, partial curve, poor fit]"
11,Cc1ccc(Cn2c(C(=O)NCc3ccccc3Cl)cc3sccc32)cc1,inactive
12,CCOC(=O)c1cc(CC)sc1NC(=O)CCC(=O)O,inactive
13,Cc1occc1C(=O)NNC(=O)Nc1ccc(Cl)c(Cl)c1,inactive
14,O=C(/C=C/c1ccccc1[N+](=O)[O-])c1ccccc1Br,"inconclusive: 5.62 µM [inhibitor, single point]"
15,O=[N+]([O-])c1cccc(C2(O)COc3ccccc3O2)c1 (stereo not drawn),inactive
16,CC(C)(c1ccccc1)c1ccc(OCCn2cnc3ccccc3c2=O)cc1,inactive
17,Cn1nc(-c2ccccc2)cc1NC(=O)Nc1ccc(F)cc1,inactive
18,CC(=O)N(Cc1c(C)nn(-c2ccccc2)c1Cl)c1ccc(Cl)cc1,inactive
19,O=C(Cn1cc(C(=O)c2ccccc2F)c2ccccc21)NCc1ccco1,"inconclusive: 6.51 µM [inhibitor, partial curve, poor fit]"
20,CN(CC(=O)N1CC(=O)N(CCc2ccccc2)C(=O)C1)S(=O)(=O)c1cccc2nsnc12,"inconclusive: 18.3 µM [activator, partial curve, poor fit]"
21,CC(C)Cn1c(/C=N/Nc2nc3ccccc3[nH]2)nc2ccccc21,"inconclusive: 1.26 µM [inhibitor, full curve, poor fit]"
22,COc1ccc(CCN(Cc2ccccn2)C(=S)Nc2ccccc2F)cc1OC,inactive
23,CCOC(=O)/C=C/C(=O)Nc1ccc(S(=O)(=O)Nc2c(C)cc(C)cc2C)cc1,"inconclusive: 29.1 µM [activator, single point]"
24,CN(C)C(=O)c1cc(C(=O)c2ccccc2)c[nH]1,inactive
25,CC(=O)Nc1ccc(Nc2cc(N3CCOCC3)c3nonc3c2[N+](=O)[O-])cc1,inactive

# 21 of the compounds above, bar-delimited.
row | SMILES | Potency
1 | N#Cc1ccc(COC(=O)CSc2nnc(C3CCCCC3)n2N)cc1 | inactive
2 | CCOc1cccc2cc(C(N)=O)c(=NCc3ccccc3)oc12 | inactive
3 | CN(C)CCn1c(N)nc2ccccc21 | inconclusive: 0.562 µM [inhibitor, full curve, poor fit]
4 | Cc1ccc(-n2ncc3c2CCCC3NC(=O)CCCN2CCCC2=O)cc1C (stereo not drawn) | inactive
5 | CSCCC(NC(=O)c1ccc(Cl)cc1)C(=O)OCC(C)=O (stereo not drawn) | inactive
6 | CC12CC(O)C3C(CCC4=CC(=O)CCC43C)C1CCC2=O (stereo not drawn) | inactive
7 | CSc1nc2c(cc1C#N)C(=O)CC(C)(C)C2 | inconclusive: 6.31 µM [inhibitor, single point]
8 | Cc1nc2sccn2c(=O)c1S(=O)(=O)Nc1ccc(N2CCOCC2)c(Cl)c1 | inactive
9 | Cc1ccc(NC(=O)Cn2ncn3c(cc4ccccc43)c2=O)cc1F | inactive and inconclusive: 11.2 µM [inhibitor, single point]
10 | COc1ccccc1/C=C/C=N/NC(=O)CCn1cnc2ccccc21 | inconclusive: 3.98 µM [inhibitor, partial curve, poor fit]
11 | Cc1ccc(Cn2c(C(=O)NCc3ccccc3Cl)cc3sccc32)cc1 | inactive
12 | CCOC(=O)c1cc(CC)sc1NC(=O)CCC(=O)O | inactive
13 | Cc1occc1C(=O)NNC(=O)Nc1ccc(Cl)c(Cl)c1 | inactive
14 | O=C(/C=C/c1ccccc1[N+](=O)[O-])c1ccccc1Br | inconclusive: 5.62 µM [inhibitor, single point]
15 | O=[N+]([O-])c1cccc(C2(O)COc3ccccc3O2)c1 (stereo not drawn) | inactive
16 | CC(C)(c1ccccc1)c1ccc(OCCn2cnc3ccccc3c2=O)cc1 | inactive
17 | Cn1nc(-c2ccccc2)cc1NC(=O)Nc1ccc(F)cc1 | inactive
18 | CC(=O)N(Cc1c(C)nn(-c2ccccc2)c1Cl)c1ccc(Cl)cc1 | inactive
19 | O=C(Cn1cc(C(=O)c2ccccc2F)c2ccccc21)NCc1ccco1 | inconclusive: 6.51 µM [inhibitor, partial curve, poor fit]
20 | CN(CC(=O)N1CC(=O)N(CCc2ccccc2)C(=O)C1)S(=O)(=O)c1cccc2nsnc12 | inconclusive: 18.3 µM [activator, partial curve, poor fit]
21 | CC(C)Cn1c(/C=N/Nc2nc3ccccc3[nH]2)nc2ccccc21 | inconclusive: 1.26 µM [inhibitor, full curve, poor fit]

# (listing goes on)

row,SMILES,Potency
1,CCOc1cc(/C=C(\C#N)C(=O)NCC2CCCO2)ccc1O (stereo not drawn),"inconclusive: 35.5 µM [activator, single point]"
2,O=C1CSC(c2cccnc2)N1C1CCCCC1 (stereo not drawn),"inconclusive: 7.3 µM [inhibitor, partial curve, poor fit]"
3,CC1CCCCN1C(=O)c1cc2nc(-c3ccccc3)cc(-c3ccccc3)n2n1 (stereo not drawn),"inconclusive: 35.5 µM [inhibitor, single point]"
4,OC(COc1ccc2cc(Br)ccc2c1)CN1CCN(c2ccccn2)CC1 (stereo not drawn),"inconclusive: 35.5 µM [inhibitor, single point]"
5,CCN(CC)S(=O)(=O)c1cccc(C(=O)OC2CCOC2=O)c1 (stereo not drawn),"inconclusive: 2.51 µM [activator, full curve, poor fit]"
6,Cc1ccccc1NC(=O)c1sc(NC(=O)C2CC2)nc1C,inactive
7,CCOC(=O)CCN(c1ccccc1)S(=O)(=O)c1ccc(-c2ccc(=O)[nH]n2)s1,"inconclusive: 0.631 µM [activator, full curve, poor fit]"
8,CC(NC(=O)CN(c1ccccc1F)S(C)(=O)=O)c1ccccc1 (stereo not drawn),inactive
10,CCCCC(O)(CCCC)C(=O)NN(C(=O)OC)c1ccccc1,"inconclusive: 22.4 µM [inhibitor, single point]"
11,COc1ccccc1N1CCN(C(=O)c2cccc3c(=O)c(C)c(-c4ccccc4)oc23)CC1,inactive
12,CCCNC(=O)C(=O)NCCC1=CCCCC1,"inconclusive: 1.26 µM [activator, single point]"
13,O=C(COC(=O)C1CC1)NC(=O)c1ccccc1,"inconclusive: 35.5 µM [activator, single point]"
14,COc1ccccc1N1C(=O)Cc2ccccc2C1=O,"inconclusive: 2.82 µM [activator, full curve, poor fit]"
15,COc1ccc(/C(C)=N/NC(=O)c2cccc(S(=O)(=O)N3CCCC3)c2)c(O)c1,"inconclusive: 12.6 µM [inhibitor, partial curve, poor fit]"
16,O=C(CSc1ccc([N+](=O)[O-])cn1)Nc1cc(C(F)(F)F)ccc1N1CCOCC1,"inconclusive: 35.5 µM [inhibitor, single point]"
17,CCOC(=O)N(C)c1ccc(C(O)(C(F)(F)F)C(F)(F)F)cc1,"inconclusive: 0.158 µM [inhibitor, full curve, poor fit]"
18,CC[C@@]1(C)Cc2c(sc3c2c(=O)n(C)c2nnc(SCc4ccccc4)n32)CO1,inactive
19,COc1ccc(Nc2oc(-c3ccco3)nc2S(=O)(=O)c2ccc(F)cc2)cc1,inactive
20,O=C(CCc1ccccc1)NNC(=S)NC(=O)c1ccccc1,"inconclusive: 32.6 µM [inhibitor, single point]"
21,CCOc1ccccc1CNC(=O)c1cc2oc3ccccc3c2n1C,"inconclusive: 16.4 µM [inhibitor, single point]"
22,COc1ccc(C=NNC(=O)c2ccccc2OCc2ccc(F)cc2)c(OC)c1,"inconclusive: 5.62 µM [activator, single point]"
23,CC(C)(C)NC(=O)COC(=O)c1ccc(O)cc1,"inconclusive: 28.2 µM [activator, single point]"
24,Cc1cc(C(=O)COc2ccc(F)cc2Br)c(C)n1C,inactive
25,O=C1COc2ccc(S(=O)(=O)CCC(=O)N3CCN(c4cccc(C(F)(F)F)c4)CC3)cc2N1,"inconclusive: 11.2 µM [inhibitor, partial curve, poor fit]"

row,SMILES,Potency
1,CC(C(=O)NC1CCCCC1)N1C(=O)c2cccc3cccc1c23 (stereo not drawn),"inconclusive: 5.62 µM [inhibitor, single point]"
2,Cc1ccc(NC(=O)c2ccoc2C)cc1C,inactive
3,CN(C(=O)c1ccc(Cl)cc1)C1=CCCCC1CCC#N (stereo not drawn),"inconclusive: 14.1 µM [inhibitor, single point]"
4,CC(=O)Nc1ncc(Sc2ccc([N+](=O)[O-])cc2)s1,"inconclusive: 10 µM [inhibitor, partial curve, poor fit]"
5,CCOC(=O)C1=C(c2ccccc2)NC(SC)=C(C#N)C1c1ccco1 (stereo not drawn),"inconclusive: 25.9 µM [inhibitor, partial curve, poor fit]"
6,CCc1ccc(C(=O)c2cn(CC(=O)Nc3ccc4c(c3)OCO4)c3ccc(OC)cc3c2=O)cc1,"inconclusive: 5.62 µM [inhibitor, single point]"
7,COC(=O)CNC(=O)c1ccc(F)cc1,inactive
8,O=C(c1ccccc1)c1cn(CC(=O)N2CCCc3ccccc32)c2ccccc12,"inconclusive: 29.1 µM [inhibitor, single point]"
9,O=C1/C(=C\c2ccccc2)CCC/C1=C/c1ccccc1,"inconclusive: 31.6 µM [inhibitor, partial curve, poor fit]"
11,CCOc1ccc(-c2nc(N)ncc2-c2ccc(OC)cc2)c(O)c1,"inconclusive: 3.98 µM [inhibitor, partial curve, poor fit]"
12,Cc1ccccc1NC(=O)Cc1nc(COC(=O)CCNS(=O)(=O)c2ccccc2)cs1,"inconclusive: 2.24 µM [inhibitor, full curve]"
13,Cc1ccc(C(C)C)c(OCC(=O)N2CCN(c3ncccn3)CC2)c1,"inconclusive: 8.91 µM [inhibitor, full curve, poor fit]"
14,COc1cc(NC(=O)c2cccc3c2C(=O)N(C2CCCCC2)C3)cc(OC)c1OC,"inconclusive: 11.2 µM [inhibitor, partial curve, poor fit]"
15,CC(=O)c1ccc(N2CCN(C(=O)Cc3cccs3)CC2)cc1,"inconclusive: 0.501 µM [activator, full curve, poor fit]"
16,CCC(C(=O)Nc1sc(C(N)=O)c(C)c1C(=O)OC)c1ccccc1 (stereo not drawn),active: 12.6 µM
17,COC(=O)Cc1ccc(O)c(N)c1,inactive
18,Cc1sc2ncnc(NCC(c3ccco3)N(C)C)c2c1C (stereo not drawn),inactive
19,Nc1nc(CSc2nc3ccccc3s2)nc(N2CCOCC2)n1,inactive
20,COc1cccc(/C=C2\SC(=S)N(C(Cc3ccccc3)C(=O)O)C2=O)c1 (stereo not drawn),inactive
21,CC(=O)Nc1ccc(NC(=O)c2ccc3c(c2)CCN3S(C)(=O)=O)cc1,"inconclusive: 6.31 µM [inhibitor, single point]"
22,COc1ccc(CCNc2nc(N3CCCCC3)nc(N3CCCCC3)n2)cc1OC,"inconclusive: 8.91 µM [inhibitor, partial curve, poor fit]"
23,CCn1c(C)c(P(c2ccccc2)c2ccccc2)[n+]2ccccc12,"inconclusive: 35.5 µM [inhibitor, single point]"

# Reformatted: entries from further up
row	SMILES	Potency
5	CCN(CC)S(=O)(=O)c1cccc(C(=O)OC2CCOC2=O)c1 (stereo not drawn)	inconclusive: 2.51 µM [activator, full curve, poor fit]
20	O=C(CCc1ccccc1)NNC(=S)NC(=O)c1ccccc1	inconclusive: 32.6 µM [inhibitor, single point]
